From article PMC13156308 come the findings set out here.

Chains of the proteins cited; added tags and fusions are not shown. Lines headed by an entry give the natural chain unless they say otherwise; changes in a name come on top. A line that says so, or that is headed by a name, gives the form on record, which may keep a tag or linker.
UniProt P97310: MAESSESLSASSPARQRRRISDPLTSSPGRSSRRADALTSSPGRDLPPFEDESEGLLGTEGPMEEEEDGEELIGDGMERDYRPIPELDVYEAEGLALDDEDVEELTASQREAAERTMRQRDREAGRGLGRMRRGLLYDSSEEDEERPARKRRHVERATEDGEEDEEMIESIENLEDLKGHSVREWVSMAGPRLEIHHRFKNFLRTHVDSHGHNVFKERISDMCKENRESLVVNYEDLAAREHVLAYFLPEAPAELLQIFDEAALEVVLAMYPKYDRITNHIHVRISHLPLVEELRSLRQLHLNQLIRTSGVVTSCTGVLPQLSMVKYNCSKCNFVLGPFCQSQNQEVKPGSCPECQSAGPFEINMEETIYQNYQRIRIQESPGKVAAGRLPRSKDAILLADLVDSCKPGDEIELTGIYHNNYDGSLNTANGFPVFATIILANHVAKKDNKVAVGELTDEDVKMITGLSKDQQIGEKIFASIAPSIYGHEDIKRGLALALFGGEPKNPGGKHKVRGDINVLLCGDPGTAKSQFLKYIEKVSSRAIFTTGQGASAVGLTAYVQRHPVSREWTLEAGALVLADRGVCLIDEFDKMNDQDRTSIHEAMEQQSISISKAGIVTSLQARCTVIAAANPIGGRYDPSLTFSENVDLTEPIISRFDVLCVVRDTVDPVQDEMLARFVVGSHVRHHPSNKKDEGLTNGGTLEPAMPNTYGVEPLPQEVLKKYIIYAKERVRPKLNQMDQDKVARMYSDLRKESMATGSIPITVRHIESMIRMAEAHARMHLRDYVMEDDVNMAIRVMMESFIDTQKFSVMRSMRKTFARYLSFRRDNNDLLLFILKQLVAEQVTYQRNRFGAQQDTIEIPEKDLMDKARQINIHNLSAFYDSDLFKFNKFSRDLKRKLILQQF
MCM2-2A-TurboID-3xHA (mouse) (P97310, form named): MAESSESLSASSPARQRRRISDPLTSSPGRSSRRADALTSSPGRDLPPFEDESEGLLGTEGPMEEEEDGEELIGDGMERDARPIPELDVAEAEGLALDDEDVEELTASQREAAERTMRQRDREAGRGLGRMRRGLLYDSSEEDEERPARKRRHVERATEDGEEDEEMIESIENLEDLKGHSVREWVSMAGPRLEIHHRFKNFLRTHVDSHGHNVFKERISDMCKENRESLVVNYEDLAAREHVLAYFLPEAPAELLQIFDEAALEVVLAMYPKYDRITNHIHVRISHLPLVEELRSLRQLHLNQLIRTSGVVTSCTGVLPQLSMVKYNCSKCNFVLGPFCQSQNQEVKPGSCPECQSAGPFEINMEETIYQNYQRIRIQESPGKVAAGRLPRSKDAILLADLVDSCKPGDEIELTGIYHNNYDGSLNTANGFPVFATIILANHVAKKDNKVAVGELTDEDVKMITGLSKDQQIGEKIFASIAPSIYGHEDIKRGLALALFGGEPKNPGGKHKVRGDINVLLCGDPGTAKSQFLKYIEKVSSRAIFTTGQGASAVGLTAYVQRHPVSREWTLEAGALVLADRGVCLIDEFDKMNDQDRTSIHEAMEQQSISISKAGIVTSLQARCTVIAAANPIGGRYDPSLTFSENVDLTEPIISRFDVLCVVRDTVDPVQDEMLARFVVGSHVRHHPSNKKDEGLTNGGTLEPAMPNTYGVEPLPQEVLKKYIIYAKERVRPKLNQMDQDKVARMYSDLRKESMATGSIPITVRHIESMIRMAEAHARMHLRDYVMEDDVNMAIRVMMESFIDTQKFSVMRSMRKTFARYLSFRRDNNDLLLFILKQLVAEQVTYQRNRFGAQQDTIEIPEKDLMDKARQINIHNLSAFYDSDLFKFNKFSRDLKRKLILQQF

These are yes or no findings as the source states them, for the method shown. Binding seen in cells or lysates may run through a third protein. These calls come from enrichment with a bait or labelling near it, and not all partners need be listed.

What all share (experiment): proximity labelling; bait-TurboID stably expressed in S-phase-synchronised NIH3T3 cells, 500 uM biotin 1 h, RIPA lysis, streptavidin beads, LC-MS/MS, four replicates; enriched: bait/Control >2, P <0.05
Assay [1] deals with T1, POLE4-TurboID (mouse) (UniProt Q9CQ36).
T1 sequence: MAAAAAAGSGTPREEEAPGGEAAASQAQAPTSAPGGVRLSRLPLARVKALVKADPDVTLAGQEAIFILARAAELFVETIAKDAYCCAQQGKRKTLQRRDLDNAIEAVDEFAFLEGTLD

Assay [2] concerns the target T2, POLE3-TurboID (mouse) (UniProt Q9JKP7).
T2 sequence: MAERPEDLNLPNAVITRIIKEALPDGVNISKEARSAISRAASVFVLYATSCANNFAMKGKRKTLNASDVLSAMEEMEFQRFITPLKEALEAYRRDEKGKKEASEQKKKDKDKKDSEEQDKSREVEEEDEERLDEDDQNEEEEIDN

Assay [3] deals with MCM2-TurboID-3xHA (mouse) (mouse) (UniProt P97310).
For assay [4], the target named is MCM2-2A-TurboID-3xHA (mouse) (mouse) (UniProt P97310).

B1: NAP1L1 (protein, UniProt P28656 1-391)
chain: MADIDNKEQSELDQDLEDVEEVEEEETGEETKIKARQLTVQMMQNPQILAALQERLDGLVDTPTGYIESLPKVVKRRVNALKNLQVKCAQIEAKFYEEVHDLERKYAVLYQPLFDKRFEIINAIYEPTEEECEWKPDEEDEVSEELKEKAKIEDEKKDEEKEDPKGIPEFWLTVFKNVDLLSDMVQEHDEPILKHLKDIKVKFSDAGQPMSFVLEFHFEPNDYFTNEVLTKTYRMRSEPDDSDPFSFDGPEIMGCTGCQIDWKKGKNVTLKTIKKKQKHKGRGTVRTVTKTVSNDSFFNFFAPPEVPENGDLDDDAEAILAADFEIGHFLRERIIPRSVLYFTGEAIEDDDDDYDEEGEEADEEGEEEGDEENDPDYDPKKDQNPAECKQQ
Regarding B1, the binding result in assay [1] and in assay [2] was “binds” each time.

B2: POLA1 (mouse) (protein, UniProt P33609 1-1465)
chain: MAPMHEEDCKLEASAVSDSGSFAASRARREKKSKKGRQEALERLKKAKAGEKYKYEVEDLTSVYEEVDEEQYSKLVQARQDDDWIVDDDGIGYVEDGREIFDDDLEDDALDTCGKGSDGKAHRKDRKDVKKPSVTKPNNIKAMFIASAGKKTTDKAVDLSKDDLLGDILQDLNTETAQITPPPVLIPKKKRSTGALLNPFSVHTPKAIPSGKPASPVLRNEPLLTPIPLKRAELAGELAQPECPEDEQELGVMEFEDGDFDESMDTEKVDEKPVTAKTWDQETEPVERVEHEADPERGTTSYLENFLPDVSCWDIDQDDESIPQEVQVDSSNLPLVKGADDEQVFQFYWLDAYEDPYNQPGVVFLFGKVWIESVKTHVSCCVMVKNIERTLYFLPREMKFDLNTGKETAIPVTMKDVYEEFDSKISAKYKIMKFKSKIVEKNYAFEIPDVPEKSEYLEVRYSAEVPQLPQNLKGETFSHVFGTNTSSLELFLMNRKIKGPCWLEVKNPQLLNQPISWCKFEVMALKPDLVNVIKDVSPPPLVVMSFSMKTMQNVQNHQHEIIAMAALVHHSFALDKAPPEPPFQTHFCVVSKPKDCIFPCDFKEVISKKNMKVEIAATERTLIGFFLAKVHKIDPDILVGHNICSFELEVLLQRINECKVPYWSKIGRLRRSNMPKLGSRSGFGERNATCGRMICDVEISAKELIHCKSYHLSELVQQILKTERIVIPTENIRNMYSESSYLLYLLEHIWKDARFILQIMCELNVLPLALQITNIAGNIMSRTLMGGRSERNEFLLLHAFYENNYIVPDKQIFRKPQQKLGDEDEEIDGDTNKYKKGRKKATYAGGLVLDPKVGFYDKFILLLDFNSLYPSIIQEFNICFTTVQRVTSEVQKATEDEEQEQIPELPDPNLEMGILPREIRKLVERRKQVKQLMKQQDLNPDLVLQYDIRQKALKLTANSMYGCLGFSYSRFYAKPLAALVTYKGREILMHTKDMVQKMNLEVIYGDTDSIMINTNSTNLEEVFKLGNKVKSEVNKLYKLLEIDIDAVFKSLLLLKKKKYAALVVEPTSDGNYITKQELKGLDIVRRDWCDLAKDTGNFVIGQILSDQSRDTIVENIQKRLIEIGENVLNGSVPVSQFEINKALTKDPQDYPDRKSLPHVHVALWINSQGGRKVKAGDTVSYVICQDGSNLTATQRAYAPEQLQKLDNLAIDTQYYLAQQIHPVVARICEPIDGIDAVLIALWLGLDSTQFRVHQYHKDEENDALLGGPAQLTDEEKYKDCEKFKCLCPSCGTENIYDNVFEGSGLDMEPSLYRCSNVDCKVSPLTFMVQLSNKLIMDIRRCIKKYYDGWLICEEPTCCSRLRRLPLHFSRNGPLCPVCMKAVLRPEYSDKSLYTQLCFYRYIFDADCALEKLTEHEKDKLKKQFFPLRVLQDYRKVKNIAEQFLSWSGYSEVNLSKLFANYAGKS
On to B2, for which, in assay [3], the binding entry is on record as “binds”.

B3: DNA polymerase delta subunit 3 (POLD3), mouse (protein, UniProt Q9EQ28 1-462)
chain: MAEQLYLENIDEFVTDQNKIVTYKWLSYTLGVHVNQAKQMLYEYVERKRKENSGAQLHVTYLVSGSLIQNGHSCHKVAVVREDKLEAVKSKLAVTASIHVYSIQKAMLKDSGPLFNTDYDILKSNLQNCSKFSAIQCAAAVPRAPAESPSSRKYEQSNLQAASEAQASELTTNGHGPPASKQASQQPKGIMGMLISKAATKTQDTNKETKPEAREVTSASSAGGKAPGKGSVMSNFFGKAAMNKLKVNLDSEQAVKEEKTVEQPPVSVTEPKLAAPPAQKKSSRKSEPGKVQQKEKSSRGKRVDLSDEEAKETEHLKKKRRRIKLPQSDSSEDEVFEDSPEMYEADSPSPPPVSPPPDPMPKTEPPPVKRSSGETKRRRKRVLKSKTFVDEEGCIVTEKVYESESCTDSEEELKMKPASAHKPPAAAVKREPREERKGPKKGAAALGKANRQVSITGFFQKK
B3: the binding result in assay [4] and in assay [3] was “binds” each time.

B4: DNA polymerase alpha accessory subunit (POLA2) (protein, UniProt P33611 1-600)
chain: MAVSTQQLAEELQIFGLDYEDSLLEKLAELCVLYRQTEDGMVSELIAFCTSAGKTCLTVDILNSFEYEVLNKKLSKAWHSASKDSGHAGTRDIVSIQELIEAEEEEETLLSSYTTPSKGPLKRVSSTPETPLTKRSVAARSPRQLLSPSSFSPSATPSQKYTSRTNRGEVVTTFGSAQGLSWSGRGGSGSVSLKVVGDPEPLTGSYKAMFQQLMGVREVLTSKIEELGSELKEHHKIEAFTPLLVPAQEPVILLGQIGCDSNGKLNSKSVILEGDQEHSYGAQIPVDLSELKEYSLFPGQVVIMEGFNTTGRRLTATKLYEGVPLPFYQPTEEEGASEQTMVVVACGPYTTSDSITYDPLLDLIAIINRDQPDVCILFGPFLDAKHEQVENCKLTSPFEDVFKQCLRTVIEGTRSSGSHLVFVPSLRDVHHEPVYPQPPFTFSELSREDKKRVQFVSEPCSLSINGVMFGLTSTDLLFHIGAEEIFSSSGTSDRFSRVLKHILTQRSYYPLYPPHEDMAIDYENFYTYAQLPVTPDVFIVPSELRYFVKDIFGCVCVNPGRLTKGQVGGTFGRLYLRRQPKAMDGGGRQGLSVAAQVVRI
Consider B4, for which the binding result in assay [3] is “binds”.

B5: ATAD2 (protein, UniProt Q8CDM1 1-1040)
chain: MSLLKMRRHAIHSSDSTSSSSSEDDCFERRTKRNRNRAINRCLPLNFRKDEIRGIYKDRMKIGASLADVDPMQLDTSVRFDSVGGLSSHIAALKEMVVFPLLYPEVFEKFKIQPPRGCLFYGPPGTGKTLVARALANECSRGDKRVAFFMRKGADCLSKWVGESERQLRLLFDQAYQMRPAIIFFDEIDGLAPVRSSRQDQIHSSIVSTLLALMDGLDSRGEIVVIGATNRLDSIDPALRRPGRFDREFLFSLPDKNARKEILKIHTRDWNPKPVDMFLEELAEHCVGYCGADIKSICAEAALCALRRRYPQIYTTSEKLQLDLSSITISAKDFEAALQKIRPASQRAVTSPGQALSAIVKPLLQNTVHRILDALQKVFPHVEVGTNKSLNSDVSCPFLESDLAYSDDDTPSVYENGLSQKENLNFLHLNRNACYQPMSFRPRLLIVGEPGFGQSSHLAPAVIHALEKFTVYTLDIPVLFGISTTSPEEACSQMIREAKRTAPSIVYVPHIHLWWEIVGPTLKATFTTLLQTIPSFAPVLLLATSEKPYSALPEEVQELFTHDYGEIFNVQLPDKEERTKFFEDLILKQASKPPVSQKKAVLQALEVLPVAPPPEPRPLTAEEVKRLEEQEEDTFRELRIFLRNVTHRLAIDKRFRVFTKPVDPDEVPDYVTVIKQPMDLSSVISKIDLHKYLTVKDYLKDIDLICSNALEYNPDRDPGDRLIRHRACALRDTAYAIIKEELDEDFEQLCEEIQESRKKRGCSSSKYAPSYYHVMPKQNSPPVGDKKPDQEQNEKLKVPCTPVACSTPAQLKRKFHKKSKWHVGTKIKRRKISQAKDNSLNAMNSSSRSDTEDSQHTHAEHTEPGNTDESSVEESDKQNRLESNIDLKNNSSSSNIENELEEPKETTEGTELRKDRIVCRGDASASQVTDIPEDSESKEMDFLRMTLARGSQVEQQELISMEQALAILSQPTPSLVLDHKQLTNILKTVVKKSQKYNIFQLENLYAVISQCIYEHRRDYDKTALVQKMEQAVENFNCSRS
For B5, the binding entry in assay [1], in assay [2] and in assay [3] was “binds” throughout.

B6: NAP1L4 (protein, UniProt Q78ZA7 1-375)
chain: MAENSLSDGGPADSVEAAKNASNTEKLTDQVMQNPQVLAALQERLDNVSHTPSSYIETLPKAVKRRINALKQLQVRCAHIEAKFYEEVHDLERKYAALYQPLFDKRREFITGDVEPTDAESAWHSENEEEDKLAGDMKNKVVIAEKEAATVEELNPKGIPEFWFTIFRNVDMLSELVQEYDEPILKHLQDIKVKFSDPGQPMSFVLEFHFEPNDYFTNPVLTKTYKMKSEPDKADPFSFEGPEIVDCDGCTIDWKKGKNVTVKTIKKKQKHKGRGTVRTITKQVPNESFFNFFSPLKASGDGESLDEDSEFTLASDFEIGHFFRERIVPRAVLYFTGEAIEDDDNFEEGEEGEEEELEGDEEGEDEDDADVNPKV
Turning to B6, the binding entry in assay [1] and in assay [2] was “binds” throughout.

B7: helicase lymphoid-specific (HELLS) (protein, UniProt Q60848 1-821)
chain: MAEQTEPAVITPAMLEEEEQLEAAGLEKERKMLEEAQKSWDRESTEIRYRRLQHLLEKSNIYSKFLLTKMEQQQLEEQKKKEKLEKKKRSLKLTEGKSLVDGNGEKPVMKKKRGREDESYNISEVMSKEEILSVAKKHKDNEDESSSTTSLCVEDIQKNKDSNSMIKDRLSQTVRQNSKFFFDPVRKCNGQPVPFQQPKHFTGGVMRWYQVEGMEWLRMLWENGINGILADEMGLGKTVQCIATIALMIQRGVPGPFLVCGPLSTLPNWMAEFKRFTPEIPTLLYHGTREDRRKLVKNIHKRQGTLQIHPVVVTSFEIAMRDQNALQHCYWKYLIVDEGHRIKNMKCRLIRELKRFNADNKLLLTGTPLQNNLSELWSLLNFLLPDVFDDLKSFESWFDITSLSETAEDIIAKEREQNVLHMLHQILTPFLLRRLKSDVALEVPPKREVVVYAPLCNKQEIFYTAIVNRTIANMFGSCEKETVELSPTGRPKRRSRKSINYSELDQFPSELEKLISQIQPEVNRERTVVEGNIPIESEVNLKLRNIMMLLRKCCNHPYMIEYPIDPVTQEFKIDEELVTNSGKFLILDRMLPELKKRGHKVLVFSQMTSMLDILMDYCHLRNFIFSRLDGSMSYSEREKNIYSFNTDPDVFLFLVSTRAGGLGINLTAADTVIIYDSDWNPQSDLQAQDRCHRIGQTKPVVVYRLVTANTIDQKIVERAAAKRKLEKLIIHKNHFKGGQSGLSQSKNFLDAKELMELLKSRDYEREVKGSREKVISDEDLELLLDRSDLIDQMKASRPIKGKTGIFKILENSEDSSAECLF
Consider B7, for which the binding entry in assay [1], in assay [2] and in assay [3] was “binds” in each case.
